According to paper PMC7819943, “Rice protein-binding microarrays: a tool to detect cis-acting elements near promoter regions in rice”:
Some of the results follow.

Chains of the proteins cited; added tags and fusions are not shown.
UniProt Q0JBA9, entry or part of it: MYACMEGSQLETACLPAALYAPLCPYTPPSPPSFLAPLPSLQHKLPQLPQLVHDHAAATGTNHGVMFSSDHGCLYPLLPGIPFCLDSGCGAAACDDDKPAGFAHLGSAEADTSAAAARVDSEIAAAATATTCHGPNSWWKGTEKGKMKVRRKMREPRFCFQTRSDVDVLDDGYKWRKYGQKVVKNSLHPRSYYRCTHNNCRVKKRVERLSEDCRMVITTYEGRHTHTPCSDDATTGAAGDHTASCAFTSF

What follows are sequences tested against OsWRKY34 (Oryza sativa, UniProt Q0JBA9 1-250) (assay: protein-binding microarray (RPBM); PBS, 2% BSA, 51.3 ng/ul salmon testes DNA, 50 uM zinc acetate, 200 nM TF, 25 C, 1 h; high values mean tight binding). Settings: protein: recombinant; tags: N-terminal polyhistidine and DsRed monomer fusion (pET32a); label: CyDye5-dUTP incorporated in the synthesized complementary strand; 3' TTTTT single-stranded linker to array surface; dsDNA, one strand shown.
Method in brief: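 The binding signal is fluorescence intensity per array feature (arbitrary units). Readings came from an Axon 4000B scanner after a washed, 2% BSA-blocked, double-stranded custom Agilent array had been incubated for 1 h at 25 °C with 200 nM protein and 50 µM zinc acetate. The protein was a Ni–NTA-purified transcription factor fused N-terminally to polyhistidine and DsRed, expressed in E. coli BL21-CodonPlus.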

| Sequence | binding signal |
| --- | --- |
| TACTTTCACTCTCACCTCACCATTTCTTCTTCTTCTTCCTCGGAGTCACCTAGTGCAG | 10100 fluorescence intensity (a.u.) |
| TTTTTTTCTTTCCGTATCTTTTTCTTTTTTTGGTTTTTTACGGAGTCACCTAGTGCAG | 8410 fluorescence intensity (a.u.) |
| CTCCTTTCGCCTCCTCATCCTCCTGCTTCCGAAATCCTCACGGAGTCACCTAGTGCAG | 8900 fluorescence intensity (a.u.) |
| GAGAGTTAGGGTTCGACGGCGGGGTTGTGGAATGGGGAATCGGAGTCACCTAGTGCAG | 8480 fluorescence intensity (a.u.) |
| TGATTTGATCTGTGTTGATTCGATTTGTGCTGAATTATTCCGGAGTCACCTAGTGCAG | 8080 fluorescence intensity (a.u.) |
| ATCTCCACGCCGACGCCCCGCTCCGCCATGGCCCGCGCGACGGAGTCACCTAGTGCAG | 12600 fluorescence intensity (a.u.) |
| TATAGTAGTATGGGTGGAGATTTATATTTTTCTCTCGATTCGGAGTCACCTAGTGCAG | 8940 fluorescence intensity (a.u.) |
| TCTGGTGACGCCTCCTGTCTCTCTTGTCGGCGTCTCTCTCCGGAGTCACCTAGTGCAG | 10700 fluorescence intensity (a.u.) |
| GTAATTCGTACTTTTTCCAAACTGTAATAGTGTCATACTACGGAGTCACCTAGTGCAG | 10300 fluorescence intensity (a.u.) |
| TGGGCCTCTTTCTTCCCACACTACTTTGGGCCATCCAAAACGGAGTCACCTAGTGCAG | 12100 fluorescence intensity (a.u.) |
| ATCGTCACCTCGTTTTGCTTGTCTACTTCGATCGCCGCCTCGGAGTCACCTAGTGCAG | 14800 fluorescence intensity (a.u.) |
| GATCCTCATTCGACTGTATCCTATCCTGTGCATTCGTGCCCGGAGTCACCTAGTGCAG | 9860 fluorescence intensity (a.u.) |
| TTCTCAGCTTGGCTTTACATGTTTTCTTGCCACTAACCAGCGGAGTCACCTAGTGCAG | 11200 fluorescence intensity (a.u.) |
| TGGCTGGATGGGACTCTATATACATATGTCGATAAAAAGACGGAGTCACCTAGTGCAG | 10200 fluorescence intensity (a.u.) |
| GTTCAGAAGTATTATCAACATGACTTTGATTTGTCGTTACCGGAGTCACCTAGTGCAG | 8420 fluorescence intensity (a.u.) |
| TCTCACTCTCTCACACACACACTCTCTCTCTCTGCTAGCTCGGAGTCACCTAGTGCAG | 9820 fluorescence intensity (a.u.) |
| GTTGGCAGGCAGGCATGTTGCTCGATCGATCCTTTTGTTTCGGAGTCACCTAGTGCAG | 8810 fluorescence intensity (a.u.) |
| TTCAACCATTCCACTCTATTAACCCATCACATTTTAATACCGGAGTCACCTAGTGCAG | 9280 fluorescence intensity (a.u.) |
| ATTCCTCTCTCTTCCACCGCTCCGCCTTCCTTTGATCCTTCGGAGTCACCTAGTGCAG | 11500 fluorescence intensity (a.u.) |
| ATGTTTGACGCTGTTGACTTTTTTAAACATATTTGACTCTCGGAGTCACCTAGTGCAG | 21500 fluorescence intensity (a.u.) |
| TCTCCTCCACCTCAGCATTTAGCCGGCTTATAGCCTACTACGGAGTCACCTAGTGCAG | 8830 fluorescence intensity (a.u.) |
| ACATTTTCACGAGTCTTTTCACTTCCGCCCGCGCCCAAGTCGGAGTCACCTAGTGCAG | 11800 fluorescence intensity (a.u.) |
| GGTACAATTAATTACTCGCGCCACCTATCCAATTTCCCACCGGAGTCACCTAGTGCAG | 8760 fluorescence intensity (a.u.) |

Looked up one by one from the list above, 2 records:

| Sequence | binding signal |
| --- | --- |
| TGATTTGATCTGTGTTGATTCGATTTGTGCTGAATTATTCCGGAGTCACCTAGTGCAG | 8080 fluorescence intensity (a.u.) |
| TCTCACTCTCTCACACACACACTCTCTCTCTCTGCTAGCTCGGAGTCACCTAGTGCAG | 9820 fluorescence intensity (a.u.) |
